Measured values reported in the supplement of paper PMC9744312.
Where a name gives a salt, the structure may show the parent alone. This is one part of the list. This is a noisy data set.

Each compound was assayed on Peyronie's disease tunica albuginea primary fibroblasts (assay: cell viability (DRAQ5 nuclear stain) relative to TGF-beta1-only control; higher = more viable cells). Settings: 10 µM; TGF-beta1 10 ng/mL; 72 h.

| SMILES | cell viability [%] |
| --- | --- |
| NC(=O)CN1CC(O)CC1=O (centres undefined) [Oxiracetam] | 89.5 |
| C[CH2][Hg][S]c1ccccc1C(=O)[O-].[Na+] [Thimerosal] | 16.5 |
| O=C(O[C@H]1C[C@H]2CC[C@@H](C1)[N+]21CCCC1)C(O)(c1ccccc1)c1ccccc1 [Trospium chloride] | 88.4 |
| COc1ccc(C(=O)N2CCCC2=O)cc1 [Aniracetam] | 52.1 |
| O=C(O)CCCc1ccc(N(CCCl)CCCl)cc1 [Chloroambucil] | 73 |
| CC[C@@H](C(N)=O)N1CCCC1=O [Levetiracetam] | 88.2 |
| CCC[C@@H]1CC(=O)N([C@@H](CC)C(N)=O)C1 [Brivaracetam] | 93.5 |
| Nc1ccncc1 [4-Aminopyridine] | 88.3 |
| Cc1ncc(CNC(=O)N(CCCl)N=O)c(N)n1 [Nimustine Hydrochloride] | 90.4 |
| CCCN1C[C@H](CSC)C[C@@H]2c3cccc4[nH]cc(c34)C[C@H]21 [Pergolide Mesylate] | 94.2 |
| CC(=O)OC1CN2CCC1CC2 (centres undefined) [Aceclidine HCl] | 94.4 |
| C[N+](C)(C)CCCCCCCCCC[N+](C)(C)C [Decamethonium Bromide] | 86.8 |
| CN1c2ccccc2C(NCCCCCCC(=O)O)c2ccc(Cl)cc2S1(=O)=O (centres undefined) [Tianeptine] | 89.2 |
| CN1c2ccccc2C(NCCCCCCC(=O)O)c2ccc(Cl)cc2S1(=O)=O (centres undefined) [Tianeptine sodium] | 96.5 |
| NCCc1cc(O)c(O)cc1O [Oxidopamine (hydrobromide)] | 82.9 |
| Nc1nc(N)nc(NC2CC2)n1 [Cyromazine] | 73.3 |
| O=[N+]([O-])O[C@@H]1CO[C@H]2[C@@H]1OC[C@@H]2O [Isosorbide Mononitrate] | 78.7 |
| CCCCCCC(=O)O[C@H]1CC[C@H]2[C@@H]3CCC4=CC(=O)CC[C@]4(C)[C@H]3CC[C@]12C [Testosterone Enanthate] | 89.9 |
| N[C@@H](Cc1ccc(N(CCCl)CCCl)cc1)C(=O)O [Melphalan] | 85.3 |
| CC(C)N(CCC(C(N)=O)(c1ccccc1)c1ccccn1)C(C)C (centres undefined) [Disopyramide] | 91.9 |
| CC(C)N(CCC(C(N)=O)(c1ccccc1)c1ccccn1)C(C)C (centres undefined) [Disopyramide Phosphate] | 84.8 |
| N=C(N)NN [Aminoguanidine hydrochloride] | 88.2 |
| COc1ccc(CN2CCNCC2)c(OC)c1OC [Trimetazidine dihydrochloride] | 79.8 |
| CC[C@H]1CN2CC[C@H]1C[C@@H]2[C@@H](O)c1ccnc2ccc(OC)cc12 [Hydroquinidine] | 98.6 |
| Cc1cc(O)ccc1Cl [Chlorocresol] | 87.9 |
| O=c1[nH]c2ccccc2n1CCCN1CCC(n2c(=O)[nH]c3cc(Cl)ccc32)CC1 [Domperidone] | 100 |
| C=CC[C@]1(O)CC[C@H]2[C@@H]3CCC4=CC(=O)CCC4=C3C=C[C@@]21C [Altrenogest] | 96.2 |

| SMILES | cell viability [%] |
| --- | --- |
| C/C(=C\c1csc(C)n1)[C@@H]1C[C@@H]2O[C@]2(C)CCC[C@H](C)[C@H](O)[C@@H](C)C(=O)C(C)(C)[C@@H](O)CC(=O)O1 [Patupilone (EPO906, Epothilone B)] | 57.9 |
| Cc1ccccc1-n1c(CF)nc2ccc(N)cc2c1=O [Afloqualone] | 84.4 |
| COc1ccc2c(c1)[C@]13CCCC[C@@H]1[C@H](C2)N(C)CC3 [Dextromethorphan hydrobromide hydrate] | 72.5 |
| Cc1cccc(C(C)c2c[nH]cn2)c1C (centres undefined) [Medetomidine HCl] | 86 |
| Cc1cccc(C)c1NC1=NCCCS1 [Xylazine HCl] | 98 |
| COc1cc2c(cc1OC)C1CC(=O)C(CC(C)C)CN1CC2 (centres undefined) [Tetrabenazine (Xenazine)] | 93.5 |
| CN1C(=O)COc2c(C(=O)NC3CN4CCC3CC4)cc(Cl)cc21 (centres undefined) [Azasetron HCl] | 103 |
| Clc1ccc(C(OCCN2CCCCC2)c2ccccc2)cc1 (centres undefined) [Cloperastine hydrochloride] | 78.8 |
| O=C(O[C@H]1C[N+]2(CCCOc3ccccc3)CCC1CC2)C(O)(c1cccs1)c1cccs1 [Aclidinium Bromide] | 93.8 |
| NC(=O)CN1CCCC1=O [Piracetam] | 90 |
| O=P1(NCCCl)OCCCN1CCCl (centres undefined) [Ifosfamide] | 89.1 |
| Cc1cccc([C@H](C)c2c[nH]cn2)c1C [Dexmedetomidine] | 84.1 |
| Cc1cccc([C@H](C)c2c[nH]cn2)c1C [Dexmedetomidine HCl] | 94.8 |
| C#C[C@]1(O)C=C[C@H]2[C@@H]3CCC4=CC(=O)CC[C@@H]4[C@H]3CC[C@@]21CC [Gestodene] | 88.1 |
| C[N+]12CCC(CC1)C(OC(=O)C(O)(c1ccccc1)c1ccccc1)C2 (centres undefined) [Clidinium Bromide] | 88.9 |
| NCCc1c[nH]c2ccc(O)cc12 [Serotonin HCl] | 97.8 |
| CCC(COC(=O)c1cc(OC)c(OC)c(OC)c1)(c1ccccc1)N(C)C (centres undefined) [Trimebutine] | 94.2 |
| CCNC1(c2cccs2)CCCCC1=O (centres undefined) [Tiletamine Hydrochloride] | 95.7 |
| C[C@@H]1CC[C@H]2[C@@H](C)C(=O)O[C@@H]3O[C@@]4(C)CC[C@@H]1[C@]32OO4 [Artemisinin] | 62.4 |
| CC[C@H]1[C@@H]2C[C@H]3[C@@H]4N(C)c5ccccc5[C@]45C[C@@H]([C@@H]2[C@H]5O)N3[C@@H]1O [Ajmaline] | 91.3 |
| CCC1(c2cccc(O)c2)CCCCN(C)C1 (centres undefined) [Meptazinol HCl] | 92.2 |
| COC(=O)C1=CCCN(C)C1 [Arecoline HBr] | 76.7 |
| COc1cc2c(cc1OC)[C@@]13CCN4CC5=CCO[C@H]6CC(=O)N2[C@H]1[C@H]6[C@H]5C[C@H]43 [Brucine sulfate salt hydrate] | 82.9 |
| CC(C)N(CCNC(=O)CN1CCCC1=O)C(C)C [Pramiracetam] | 89.5 |
| CNCC(=O)c1ccc(O)c(O)c1 [Adrenalone HCl] | 101 |
| C[C@]12CC[C@H]3[C@@H](CC[C@@]45O[C@@H]4C(O)=C(C#N)C[C@]35C)[C@@H]1CC[C@@H]2O [Trilostane] | 92.6 |
| Oc1cc(Cl)ccc1Oc1ccc(Cl)cc1Cl [Triclosan] | 91.8 |

Quoted from the listing:
Cc1ccccc1-n1c(CF)nc2ccc(N)cc2c1=O [Afloqualone] | cell viability [%]: 84.4
COc1ccc(C(=O)N2CCCC2=O)cc1 [Aniracetam] | cell viability [%]: 52.1
CN1c2ccccc2C(NCCCCCCC(=O)O)c2ccc(Cl)cc2S1(=O)=O (centres undefined) [Tianeptine] | cell viability [%]: 89.2
